# Measurements: PubChem BioAssay AID1347423 (Functional Genomics Laboratory (NCATS/FGL), 2020)
# The campaign covered roughly 52,000 sequences. About 210 (0.4%) were called active.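 The calls were made as follows: active = gene whose silencing raises cell survival under the drug, median off-target-corrected z-score across its silencing RNAs 2 or more; inactive = the rest.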 Some of the results follow.
# Experiment: Resistance to Poly (ADP-Ribose) Polymerase inhibitor: Gene Identification via Genome-wide siRNA Screen
# Conditions: mouse BRCA2 R2336H ES cells, olaparib, CellTiter-Glo viability; stronger effect = higher value
# Method in brief: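 Genome-wide siRNA screen (3 siRNAs/gene, 20 nM) in mouse ES cells carrying hypomorphic BRCA2 R2336H; olaparib 500 nM added 48 h post-transfection, CellTiter-Glo viability 72 h later. Normalized to plate-median negative control; MAD z-scores, gene median, seed-adjusted.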
row,Sequence,z-score
1,GGCUGUCAGUGUUUACAGGTT against Srd5a1,inactive: 0.555
2,GCUAUUGGGUAAUUUGCUUTT against Slco4a1,inactive: 1.79
3,CCGAGUCUCUUAGAAUAAUTT against Tcfcp2l1,inactive: 1.71
4,GCUUAUGGAGUCCCUUGAUTT against Mipep,inactive: 2.05
5,CCAUUGACACCUUAAAUAUTT against Cnot3,inactive: -1.94
6,GGCGUAAAAUUCAAACUCATT against Cr2,inactive: -1.03
7,GGAGUAGCUCUUCUGGAUCTT against D17Ertd288e,inactive: 0.766
8,GGACAACUGGCUUCAGACATT against A330090H18,inactive: -1.76
9,CGACUUGCUAGGUCAGUGGTT against Echdc3,inactive: 0.594
10,GGGAAAUCCUUUCAAGGAGTT against Creb1,inactive: 0.531
11,GGUGAAGGUGUCGUACUUUTT against Padi1,inactive: 0.482
12,GGUACUCUACAUGCUUAAGTT against Nte,inactive: 0.939
13,GCCCUUCUUAAAAUCCUGGTT against Itih3,inactive: -0.151
14,GGAAGUGAAAACAAGCAAUTT against Hadhb,inactive: 0.469
15,GGUCUCGAAUGUAUGGUGCTT against Bicc1,inactive: 0.836
16,CCGAGAAAGUAUGCGCAACTT against Mlf1,inactive: -0.978
17,CCUGGUAGCUUCUUCUCAATT against Krt2-4,inactive: 1.24
18,CCUGCUGGGAUUUAUUCAATT against Pmvk,inactive: 1.41
19,GCCAGAUCCCUGGAAUGUATT against 1810009K13Rik,inactive: -0.942
20,GAAUGUGCAGAUAGCUGGCTT against Sdsl,inactive: -0.97
21,AUUGCAUUCCUCCAGACUGTT against 2900036K24Rik,inactive: 0.417
22,GGAAUAGCAUCACCAGUUGTT against Ches1,inactive: -1.29
23,CCAGACCAGGGAGAAAUCATT against AY053573,inactive: 2.19
24,GGAUCUGUGACUUUAACUUTT against D830013H12,inactive: 1.57
25,ACUAUGUGCGAAACUCGCGTT against Tmhs,inactive: 0.241
26,GCAGAAUCACCUAAUUGUGTT against Adora2b,inactive: 1.5
27,GGUGAAAGGAGCAAAUGAUTT against Fyco1,inactive: -0.096

row,Sequence,z-score
1,CCGUAUCCGGCAUUGGAUUTT against Mrps16,inactive: 0.345
2,CCUAAAUACGAUUGGUGUGTT against Cdca4,inactive: 0.082
3,GGACGGUGACCUGUAUGAUTT against Cpxm1,inactive: -0.405
4,GGGACACUACAUGAAGGCCTT against Tnfrsf25,inactive: 2.2
5,GGAGUAUUUUUUCACAGUUTT against Olfr338,inactive: 0.765
6,GCCGGAGCACAACAAUUCUTT against Kcnn2,inactive: -0.076
7,GGCUGGAUUGUAGAAUUAATT against Vpreb1,inactive: 0.416
8,CGGAUACAAUUUCUGACCGTT against Gm779,inactive: 1.95
9,GGAACUUAUAUCUGCGCCATT against C030038J10Rik,inactive: 0.592
10,CCUACUACGAGAGGAAAACTT against Ak5,inactive: -0.679
11,GCUCAUGUCAGGAGAGAGUTT against 9430098E02Rik,inactive: -1.18
12,GGAUAUUCUUCCAGUCUUUTT against MGC118154,inactive: -1.48
13,GGCGUGACUUGGAAACAUGTT against Itga8,inactive: -0.019
14,GGACAUUGAGUCAAAAAUCTT against Slc19a2,inactive: 0.448
15,GGAAAAGAUGAAAAGUGACTT against Myh11,inactive: 0.385
16,GCCGUAUGGCAGGUAUUUUTT against AI118078,inactive: 1.49
17,GCGACUGUUUAGCUUUUUCTT against 2900002H16Rik,inactive: 0.561
18,AGGACUAGGGAUCCUAAUUTT against Ubl5,inactive: 1.26
19,GCCUGUUCUAGGUGACCUATT against Chd3,inactive: -1.01
20,GGCGAUUAAACUAUACAUUTT against Rrm2,inactive: -3.33
21,GGCUGCCUCGAAAUUACAATT against Lamb3,inactive: -1.79
22,CGUCUUUCCUCACUAGCAATT against Cdc42ep4,inactive: -0.133
23,CCCAAAGAUAGAGCUCUGUTT against Sec61a2,inactive: -1.82
24,GCGGACUCUUUUCAUCAAUTT against BC026370,inactive: 0.523
25,GGAAUAAUAGAGGAAUGAGTT against Bclaf1,inactive: -1.15
26,GGCCAAAAACAAGGAGACCTT against Stk10,inactive: 1.36

# Some of the entries so far, as tab-separated lines.
row	Sequence	z-score
13	GGCGUGACUUGGAAACAUGTT against Itga8	inactive: -0.019
14	GGACAUUGAGUCAAAAAUCTT against Slc19a2	inactive: 0.448
15	GGAAAAGAUGAAAAGUGACTT against Myh11	inactive: 0.385
16	GCCGUAUGGCAGGUAUUUUTT against AI118078	inactive: 1.49
17	GCGACUGUUUAGCUUUUUCTT against 2900002H16Rik	inactive: 0.561
18	AGGACUAGGGAUCCUAAUUTT against Ubl5	inactive: 1.26
19	GCCUGUUCUAGGUGACCUATT against Chd3	inactive: -1.01
20	GGCGAUUAAACUAUACAUUTT against Rrm2	inactive: -3.33
21	GGCUGCCUCGAAAUUACAATT against Lamb3	inactive: -1.79
22	CGUCUUUCCUCACUAGCAATT against Cdc42ep4	inactive: -0.133
23	CCCAAAGAUAGAGCUCUGUTT against Sec61a2	inactive: -1.82
24	GCGGACUCUUUUCAUCAAUTT against BC026370	inactive: 0.523
25	GGAAUAAUAGAGGAAUGAGTT against Bclaf1	inactive: -1.15
26	GGCCAAAAACAAGGAGACCTT against Stk10	inactive: 1.36
